# Hit rate of the full screen: of about 320,000 compounds, about 2,100 (0.66%) were called active. This list was built around the results that the source calls inconclusive (neither active nor inactive); the mix of calls is not that of the screen. The call rests on the fitted dose curve; in most records, active means well fitted inhibition curve with a large enough effect in the signal ratio, with a control signal flat (not every such curve was filed as active); inconclusive means small, poorly fitted or top-dose-only effect, or effect the other way, or a change in a side signal; inactive means flat fitted curve, though single readings scatter; the % refers to the signal ratio. Where the call is inconclusive, the potency comes from a doubtful curve fit.
# Experiment: qHTS Assay for Lipid Storage Modulators in Drosophila S3 Cells
# Settings: BODIPY lipid droplet fluorescence, 18-24 h, cells fed with added oleic acid; lipid storage change, negative = inhibition: at 46.1 µM (top of the series) unless noted
# How it was run: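 Drosophila S3 cells got compounds at several concentrations plus oleic acid (400 uM solution). Laser-scanning cytometry with 488 nm excitation read lipid droplets at 500-530 nm and cells at 575-640 nm. Percent activity was relative to 20 uM Triacsin C.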
# On the % scale 0 is the no-effect control and ±100 the full control effect; potency means the concentration at half of the fitted maximal effect.
Compound,"lipid storage change, negative = inhibition",Potency
CCOC(=S)SCC(=O)Nc1nccs1,inconclusive: -58.8%,
O=C1C=C(c2ccccc2)C[C@@H](c2ccc3c(c2)OCO3)C1,inconclusive: -4.99%,
Cc1ccc(NC(=O)CSc2nnc(CNC(=O)c3ccco3)n2C)cc1,inactive: 18%,
Cc1ccc(N(C)S(=O)(=O)c2cccc(C(=O)NCC(c3ccco3)N3CCCC3)c2)cc1 (configuration not stated),,active: 7.31 µM
Cc1ccc(CCNC(=O)CCc2nc3ccccc3[nH]2)cc1,inconclusive: -14.6%,
COc1ccccc1OCC(=O)OCC(=O)Nc1sccc1C(N)=O,,"inconclusive: 14.6 µM [falling, partial curve, poor fit]"
CCO[C@@H]1OC(C(=O)NC2CC2)=C[C@H](c2ccc(C(F)(F)F)cc2)[C@H]1CCCO,inconclusive: 10.3%,
O=C(Nc1ccc(F)cc1)N1CCOCC1,,active: 20.6 µM
CCc1ccc(NC(=O)CNCc2ccc(OC)c(OC)c2)cc1,inconclusive: 11%,
O=C(c1ccc(F)cc1)N1CCC(O)(c2cccnc2)CC1,,"inconclusive: 5.17 µM [cytotoxic, single point]"
Cc1ccc(C(=O)Oc2ccc3c(c2)ncn3C)cc1,inconclusive: -158%,
Cc1ccc(C)c(NC(=O)CSc2nnc(CNC(=O)c3ccco3)n2C)c1,,"inconclusive: 5.17 µM [activator, full curve]"
Cc1ccc(C)c(N2CCN(C(=O)COc3cc(=O)n(C)c4ccccc34)CC2)c1,inconclusive: -3.77%,
Cc1ccccc1CC(=O)N1CCCc2ccccc21,inconclusive: -16%,
CN1C(=O)/C(=C\c2ccncc2)SC1=Nc1ccccc1,inconclusive: 20.8%,
COc1ccccc1N1C(=N)S/C(=C\c2ccc(-c3ccccc3C(=O)O)o2)C1=O,inconclusive: 2.83%,
COc1ccc(OC)c(NC(=O)N2CCCC(C(=O)c3ccccc3OC)C2)c1 (configuration not stated),,"inconclusive: 32.6 µM [falling, single point]"
CC(C)(C)c1ccc(-n2ncc3c2CCCC3NC(=O)CCn2cncn2)cc1 (configuration not stated),,active: 3.66 µM
CCc1n[nH]c(=S)n1/N=C/c1cc(Br)c(OC)cc1OC,inconclusive: 205%,
CC[N+](CC)(CC)C/C(N)=N/O,inconclusive: -0.0698%,
COc1ccccc1C(=O)COC(=O)c1cccc(-n2cnnn2)c1,,"inconclusive: 4.11 µM [activator, single point]"

Compound,"lipid storage change, negative = inhibition",Potency
O=c1cc(O)c2ccccc2n1Cc1ccccc1F,inconclusive: 23.1%,
Cc1c(Cl)cnc(NC(=O)COC(=O)c2cccc(S(=O)(=O)N3c4ccccc4CC3C)c2)c1Cl (configuration not stated),inconclusive: 28%,
Cc1ccc(C(C(=O)NCC2CCCO2)N(C(=O)c2snc(C(N)=O)c2N)c2ccc(C)c(C)c2)o1 (configuration not stated),inconclusive: 21.6%,
Cc1cccc2sc(N(CCCN3CCOCC3)C(=O)CS(=O)(=O)c3ccc(F)cc3)nc12,inconclusive,
CCn1c(SCC(=O)c2ccc3c(c2)OCCO3)nnc1-c1ccco1,inconclusive: 22.8%,
COc1ccc2[nH]cc(C(=O)CN3CCC(C)CC3)c2c1,,"inconclusive: 29.1 µM [activator, single point]"
COc1ccc(OCC(O)CNC2CCCC2)cc1 (configuration not stated),inconclusive: 28.7%,
CS(=O)(=O)c1cccc(C(=O)NCc2ccc(F)cc2)c1,inconclusive: -18.5%,
CN1C(=O)C(C)(C)c2cc(S(=O)(=O)NCc3ccc(C(=O)NCc4ccco4)cc3)ccc21,inconclusive: 27.3%,
COCCCn1cc(C(=O)c2ccccc2OCC(=O)Nc2cccc(F)c2)cc(C#N)c1=O,inconclusive: 32.9%,
Cn1cc(/C=C(\NC(=O)c2ccccc2Cl)C(=O)NCCCN2CCOCC2)c2ccccc21,,"inconclusive: 29.1 µM [activator, single point]"
Cc1ccc(C(C)NC(=O)CSc2ccc(S(=O)(=O)N3CCOCC3)cn2)cc1C (configuration not stated),inconclusive: 0.803%,
CCN(Cc1ccccc1)C(=O)COc1ccccc1,,"inconclusive: 29.1 µM [activator, single point]"
CCOc1ccc(NC2=CC(=O)CC(c3ccco3)C2)cc1 (configuration not stated),inconclusive: -17.8%,
COc1ccc(S(=O)(=O)N2CCC3(CC2)OCCO3)cc1,inconclusive: -26.4%,
COc1ccccc1NC(=S)NC(=O)C(C)C,inconclusive: 8.15%,
CC(C)C12CN3CC(C(C)C)(CN(C1)C3c1ccc3c(c1)OCO3)C2=O (configuration not stated),inconclusive: 117%,
Cc1ccsc1CN(C)Cc1nc(C2CC2)no1,inconclusive: -20.3%,
COC(=O)Cn1nnc(N2CCOCC2)n1,inconclusive: 7.1%,
Cc1c(C(=O)Nc2ccc(Cl)cc2)c2ccccn2c1C(=O)c1ccccc1,,"inconclusive: 23.1 µM [falling, single point]"
COc1ccc(Cl)cc1C(=O)Nc1ccncc1,inconclusive: -1.27%,

Compound,"lipid storage change, negative = inhibition",Potency
COc1cc(/C=C/C(=O)OCC(=O)N2c3ccccc3NC(=O)C2(C)C)cc(OC)c1OC,inconclusive: -59.5%,
CCOc1ccc(C(=O)/C=C/Nc2ccc(S(=O)(=O)Nc3onc(C)c3C)cc2)cc1,inconclusive: 15.8%,
CC(C)N1CCC(N2CCN(Cc3cnc(-c4ccccc4)s3)CC2CCO)CC1 (configuration not stated),inconclusive: -15.5%,
COC(=O)CNC(=O)C1CC(=O)N(CCc2ccc(F)cc2)C1 (configuration not stated),inconclusive: -13.9%,
COc1cc(/C=N/Nc2nc3ccccc3[nH]2)ccc1O,inconclusive: -11.5%,
CCCCC(=O)N/N=C/c1sccc1C,inconclusive: -17.2%,
Clc1ccc(-n2nnc(-c3cccnc3Cl)n2)cn1,inconclusive: -22.9%,
COCCn1c(=NC(=O)c2ccco2)sc2cc(C(=O)OC)ccc21,inconclusive: -31.1%,
O=C1CCC/C1=C/Nc1ccc2c(c1)OCO2,inconclusive: 2.91%,
CCNCc1cc(Cl)cc(OC)c1OC(C)C,,"inconclusive: 29.1 µM [activator, single point]"
CN=C(Nc1cccc(OC)c1)SC1CC(=O)N(c2ccc(C(=O)O)cc2)C1=O (configuration not stated),,"inconclusive: 0.58 µM [falling, full curve]"
Cc1ccc(C)c(NC(=O)Cn2nnc(C(=O)NCc3ccco3)c2N)c1,inconclusive: -13.5%,
Cc1ccc(NC(=O)C(C)N2C(=O)c3ccccc3C2=O)cc1C (configuration not stated),inconclusive: 3.86%,
COc1ccc(C(CCNC(C)c2ccccc2)C(C)C)cc1 (configuration not stated),inconclusive: -13.5%,
CN(C)S(=O)(=O)c1ccc(NC(=O)c2cc3ccccc3o2)cc1,,"inconclusive: 1.03 µM [activator, full curve]"
O=C(CN1CCN(c2cccc(Cl)c2)CC1)Nc1nccs1,inconclusive: -30.4%,
CCC1CN(C(=O)N2CCC(C(=O)NCc3ccc(F)cc3)CC2)c2ccccc2O1 (configuration not stated),inconclusive: -100%,
COc1ccc(CN(C(=O)Cn2nnc3ccccc32)C(C(=O)NC(C)(C)C)c2ccco2)cc1 (configuration not stated),inconclusive: -43.4%,
Cc1noc(C)c1COc1cccc(C(=O)OC(C)C#N)c1 (configuration not stated),,"inconclusive: 4.61 µM [activator, single point]"
O=C(Cn1nnc(-c2ccccc2)n1)OCc1ccccc1,inconclusive: 19.4%,
CN(CCOc1ccccc1)C(=O)c1ccc(F)c(S(=O)(=O)N2CCOCC2)c1,inconclusive,

# An excerpt of these results, with bars between the fields:
Compound | lipid storage change, negative = inhibition | Potency
CCC1CN(C(=O)N2CCC(C(=O)NCc3ccc(F)cc3)CC2)c2ccccc2O1 (configuration not stated) | inconclusive: -100% | 
COc1ccc(CN(C(=O)Cn2nnc3ccccc32)C(C(=O)NC(C)(C)C)c2ccco2)cc1 (configuration not stated) | inconclusive: -43.4% | 
Cc1noc(C)c1COc1cccc(C(=O)OC(C)C#N)c1 (configuration not stated) |  | inconclusive: 4.61 µM [activator, single point]

# The list continues.

Compound,"lipid storage change, negative = inhibition",Potency
CCN(C(=O)CSc1ncnc2sccc12)c1c(N)n(Cc2ccccc2)c(=O)[nH]c1=O,inconclusive: -18.5%,
CN(C(=O)CN1C(=O)NC(C)(CCc2ccccc2)C1=O)c1ccccc1 (configuration not stated),inconclusive,
O=C(C#Cc1ccccc1)c1ccco1,inconclusive: -100%,
C=CCOc1ccc(/C=C/C(=O)OCC(=O)NCc2ccco2)cc1,,"inconclusive: 0.92 µM [falling, full curve]"
CCn1c2ccccc2c2cc(/C=N/O)ccc21,inconclusive: 12.8%,
Cc1ccc(OCc2cc(C(=O)N3CCc4[nH]cnc4C3c3ccccn3)no2)cc1C (configuration not stated),,"inconclusive: 6.51 µM [activator, partial curve, poor fit]"
N#C/C(=C/c1ccc(N2CCOCC2)o1)C(=O)N1CCOCC1,inconclusive: 3.45%,
CCCc1nnc(NC(=O)CCC(=O)N2CCC(Cc3ccccc3)CC2)s1,,"inconclusive: 0.731 µM [activator, full curve]"
O=c1c2ccccc2[nH]c(=S)n1Cc1cccs1,inconclusive: 19.4%,
Cc1ccc(/C=C/S(=O)(=O)NCC(=O)OCC(=O)Nc2ccc(C(=O)N(C)C)cc2)cc1,inconclusive: 25.6%,
Cc1ccc(S(=O)(=O)CCSc2n[nH]c(=O)n2-c2ccc3c(c2)OCCO3)cc1,inconclusive: -10.5%,
COC(=O)c1c(-c2ccc(F)cc2)csc1NC(=O)c1ccco1,inconclusive: -3.16%,
CO/N=C/C(C#N)=C/c1ccc(OC)cc1,inconclusive: 33.3%,
COc1cccc(CN(C(=O)c2ccccc2Br)C2CCS(=O)(=O)C2)c1 (configuration not stated),,"inconclusive: 29.1 µM [falling, single point]"
COC(=O)C1=C(C)NC2=C(C(=O)CC(C)(C)C2)C1c1cccc(C)n1 (configuration not stated),inconclusive: -50%,
COc1ccc2[nH]c(C(=O)O)c(NS(=O)(=O)c3ccc(F)cc3)c2c1,inconclusive: 137%,
O=C(Cn1ncc2c([nH]c3ccccc32)c1=O)Nc1ccc(F)cc1F,,"inconclusive: 29.1 µM [falling, single point]"
Cc1ccc(CC(=O)Nc2ccccc2-c2ccccc2)cc1C,,"inconclusive: 0.58 µM [activator, full curve]"
COc1ccc(N/C=C/C(=O)c2ccc(Cl)cc2)cc1,,"inconclusive: 0.164 µM [falling, full curve]"

# Single entries from the results shown:
# `COc1ccc2[nH]c(C(=O)O)c(NS(=O)(=O)c3ccc(F)cc3)c2c1` – lipid storage change, negative = inhibition: inconclusive: 137%
# `COc1ccc(N/C=C/C(=O)c2ccc(Cl)cc2)cc1` – Potency: inconclusive: 0.164 µM [falling, full curve]
# `CC(C)N1CCC(N2CCN(Cc3cnc(-c4ccccc4)s3)CC2CCO)CC1` (configuration not stated) – lipid storage change, negative = inhibition: inconclusive: -15.5%

# Source: PubChem BioAssay AID2685 (National Center for Advancing Translational Sciences (NCATS), 2010)
